Results on one molecule are retold here after paper PMC10811509, “APP‐C31: An Intracellular Promoter of Both Metal‐Free and Metal‐Bound Amyloid‐β40 Aggregation and Toxicity in Alzheimer's Disease” (Advanced Science, 2023).

The target in experiment [1] is uniformly ^15N‐labeled Aβ40. Put plainly: NMR titration; 2D 1H–15N HSQC (900 MHz); 15N-labeled Aβ40 40 µM treated with APP-C31 200 µM; 20 mM HEPES, pH 7.4, 10% D2O; 5 °C; no metal; both purified.
In the next experiment the target is amyloid‐β40 (Aβ40). Put plainly: native MS; ESI–MS; APP-C31 100 µM, Aβ40 100 µM, ZnCl2 100 µM, 20 mM ammonium acetate, pH 7.3, 37 °C, 2 h; diluted tenfold; both purified.

Results are given in words; binding and its absence hold for the method and conditions named. Some entries that bind do so weakly or less than the wild type.

B1: APP‐C31 (APP_(665–695)) (peptide)
peptide: AAVTPEERHLSKMQQNGYENPTYKFFEQMQN
Take B1: the binding entry (in experiment [1]; with amyloid‐β40 (Aβ40)) was “binds weakly” throughout.
